Assay results taken from article PMC4333404, “Bcl2 inhibits recruitment of Mre11 complex to DNA double-strand breaks in response to high-linear energy transfer radiation”.
Construct, isoform or probe ends are uncertain for at least one entry. The comparison behind a weaker result is the experiment's own reference, which may not be listed here. Tags and fusion partners may be left off the protein sequences shown.

Molecular target: T1, Mre11 (UniProt P49959)
T1 sequence (looked up, limits assumed): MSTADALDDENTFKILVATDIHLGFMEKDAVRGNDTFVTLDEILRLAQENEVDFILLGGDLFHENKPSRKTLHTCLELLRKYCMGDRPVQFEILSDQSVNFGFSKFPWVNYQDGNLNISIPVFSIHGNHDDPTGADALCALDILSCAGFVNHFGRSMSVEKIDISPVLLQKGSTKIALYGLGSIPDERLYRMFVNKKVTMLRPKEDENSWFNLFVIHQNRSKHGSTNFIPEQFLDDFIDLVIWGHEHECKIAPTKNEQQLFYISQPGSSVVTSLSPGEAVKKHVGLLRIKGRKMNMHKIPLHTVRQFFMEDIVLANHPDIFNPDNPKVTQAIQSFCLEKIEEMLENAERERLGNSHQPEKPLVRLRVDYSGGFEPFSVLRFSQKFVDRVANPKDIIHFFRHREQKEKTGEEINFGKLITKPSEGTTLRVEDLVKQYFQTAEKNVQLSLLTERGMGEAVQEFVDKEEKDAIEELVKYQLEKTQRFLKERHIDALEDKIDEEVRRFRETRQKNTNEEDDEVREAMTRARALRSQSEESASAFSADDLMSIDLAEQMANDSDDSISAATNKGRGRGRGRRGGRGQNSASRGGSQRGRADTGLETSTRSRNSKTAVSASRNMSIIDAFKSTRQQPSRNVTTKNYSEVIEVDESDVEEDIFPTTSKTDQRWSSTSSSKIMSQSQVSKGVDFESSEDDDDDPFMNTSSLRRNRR
Experiment: EMSA
Conditions: plus increasing WT Bcl2 (dose-dependent inhibition), 10 nM Mre11, 1 mM Mg acetate, EMSA: 25 mM MOPS pH 7.0, 60 mM KCl, 0.2% Tween, 2 mM DTT, 1 mM Mg(CH3COO)2, 37 C 15 min, 10 pM DNA, 5% native PAGE in TBE at 4 C, recombinant protein, protein details: Flag, label: 5'-32P on TP423

“CTGCAGGGTTTTTGTTCCAGTCTGTAGCACTGTGTAAGACAGGCCAGATC / CACAGTGCTACAGACTGGAACAAAAACCCTGCAGTACTCTACTCATCTC [TP423/TP424 3' overhanging duplex]”: binds more weakly.
